From PMC7862700
This is a selection; strong and weak results do not stand in their true shares. At the low end of the ranking the order means little.

Molecular target: SPI1 (UniProt P17947)
Test: DAPPL (digital affinity profiling via proximity ligation, sequencing)
Settings: 10 mM Tris-HCl pH 7.5, 50 mM NaCl, 1 mM DTT, 4% glycerol, room temperature, 30 min; GST-TFs on glutathione beads, 16-mer random dsDNA library, 0.1% …; high values mean tight binding; double strand, one strand shown; scale: fold enrichment (6-mer frequency, TF over GST control)

Sequence | binding signal
AGGCCT | 0.924
GTAGGA | 0.561
CAGGGA | 0.533
CCTAGT | 0.902
GTAGGT | 0.788
GTCATA | 0.747
CCGAGA | 0.577
AGGGGA | 0.903
AGGTGG | 0.638
TGAGCC | 0.834
GAGCGA | 0.614
GGTTGG | 0.804
GACGAA | 0.847
CACGTG | 0.583
ACGAGG | 0.704
GTCATG | 0.839
TGGGGC | 0.797
CCGCGA | 0.686
GATCGG | 0.439
GAGTGG | 0.576

Sequence | binding signal
GTGAGG | 0.279
ACGGAG | 0.355
AGACTG | 0.493
GACGAG | 0.478
CAGACC | 0.796
CGGGCG | 0.415
CCGGGC | 0.813
GCTTGA | 0.806
GTAGGC | 0.737
GAGGAT | 0.554
GTCCGT | 0.485
TAGAGT | 0.699
TGGAGG | 0.502
GGGGGA | 0.559
GACGTA | 0.735
GTGATT | 0.779
GCCGGC | 0.818
GCCGAG | 0.622
GGGCAG | 0.539

Reformatted comma-delimited: part of the list above
Sequence,binding signal
AGACTG,0.493
TAGAGT,0.699
